Laboratory results as given in PubChem BioAssay AID743402 (Broad Institute, 2014).
In all, about 1,200 compounds went through this assay and about 140 (12%) were called active.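 The calls were made as follows: active = fitted curve falls past -35% activity change at a dose under twice the top valid dose, in every replicate test; inconclusive = replicate tests disagree on the call; inactive = the rest, including activity in the opposite direction.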 The list lacks most of the strong results.

Experiment: restoration of mutant CFTR halide transport – FRT cells, YFP quenching, cherry-pick, dose response (AID 743402);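 also: compounds act as correctors raising surface CFTR-F508del before acute activation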
Settings: FRT CFTR-F508del YFP iodide quenching, 24 h, channel opened with forskolin and a potentiator; at 26 µM (top of the series) unless noted

Activity change, negative = more quenching (active), inactive:
Cc1cc(N/N=C/c2ccccc2O)c2ccccc2n1 13.1%, COc1ccccc1NC(=S)NN=C(C)c1ccccn1 10.1%, Cc1cccc(NS(=O)(=O)c2ccc(-c3cnc(C4CC4)o3)cc2)c1 -6.25%, COc1cc2c(cc1OC)C(C)N(C(=O)Nc1cc(C)cc(C)c1)CC2 (stereo not drawn) 0%, Cc1cccc(C(=O)OCC(=O)NC(C)C2CC3CCC2C3)c1O (stereo not drawn) 6.97%, CCOC(=O)[C@H](CCc1ccccc1)N[C@@H](C)C(=O)N1[C@H](C(=O)O)C[C@@H]2CCC[C@@H]21 7.42%, CC(C)(C)c1ccc(/C=C/C(=O)c2ccc(NC3=NCCCS3)cc2)cc1 1.85%, Cc1ccc(-c2ccc3c(c2)O[C@@H](CN(C)C(=O)Nc2ccc(F)cc2)[C@@H](C)CN([C@H](C)CO)S3(=O)=O)cc1 19.4%, COc1ccc(-c2ccc3c(c2)[C@H]2[C@H](CCN2S(=O)(=O)c2ccc(OC)cc2)[C@@H](CO)N3C)cc1 -10.7%, CCCOCCOC(=O)c1[nH]c2c(c1C)C(=O)CC(c1cc(OC)ccc1OC)C2 (stereo not drawn) -8.41%, Cc1ccc(COc2ccccc2-c2cc(C(=O)N/N=C/c3cccnc3)[nH]n2)cc1 22.5%, O=S(=O)(Cc1ccccc1)N1CCCCN2[C@H](C1)[C@@H](c1ccc(C#Cc3ccccc3)cc1)[C@@H]2CO 3.12%, COc1ccc(OC)c(C2CC(c3ccccc3)=NN2C(=S)Nc2ccccc2)c1 (stereo not drawn) -13.3%, N#C[C@@H]1[C@H](c2ccc(-c3cccc(F)c3)cc2)[C@H](CO)N1C(=O)NC1CCCC1 3.57%, CCOCCOC(=O)COC(=O)c1ccccc1NC(=O)c1ccccc1 13.3%, COc1ccc2c3c([nH]c2c1)[C@H](CO)N(C(=O)C1CCOCC1)CC31CCN(Cc2cccc(F)c2)CC1 -6.46%, COc1cc(/C=C2/SC(=Nc3ccc(O)cc3)NC2=O)cc(OC)c1O -5.56%, O=C(N=Nc1c(O)[nH]c2ccc(Br)cc12)c1ccccc1-n1cccc1 -13.3%, CC(=O)c1c(C)[nH]c(C(=O)OCC(=O)NCc2ccc(Cl)cc2)c1C 18.7%, O=c1cc(-c2ccc(O)c(O)c2)oc2cc(O)cc(O)c12 0%, O=C(CN1CCN(S(=O)(=O)c2ccc(F)c(Cl)c2)CC1)N1CCc2ccccc2C1 -3.33%, CCOc1ccc(-c2cc(C(=O)N/N=C/c3ccc(O)cc3)c3ccccc3n2)cc1 7.69%, COc1ccc(S(=O)(=O)Nc2cc3c(cc2C(C)=O)OCO3)cc1 22.7%, Cc1ccc(-c2nn(-c3ccccc3)cc2C(=O)N2CCN(c3ccccn3)CC2)cc1 16.2%, C/C(=N\Nc1ncnc2sc(C)c(C)c12)c1ccccn1 -20%, COc1cc(C(=O)Nc2ccc3c(c2)CCN3C(C)=O)cc(OC)c1OC -6.67%, CC(C)(C)N(Cc1ccccc1)C(=O)c1cc2ccccc2o1 3.33%, COc1ccc(S(=O)(=O)NCc2ccccn2)cc1NC(=O)c1ccccc1F -10.7%, COc1ccccc1C1CC(=O)Nc2cc3c(cc21)OCCO3 (stereo not drawn) 9.58%, COCCNC(=O)NC12CC3(C)CC(C)(CC(C)(C3)C1)C2 3.33%, COc1ccc(C2=NOC(C(=O)NCc3ccccc3)C2)cc1 (stereo not drawn) -3.33%, CCOC(=O)c1[nH]c(C)c(/C(O)=C2\C(=O)C(=O)N(CCCN3CCOCC3)C2c2cccs2)c1C (stereo not drawn) 7.42%, O=C1c2ccccc2C(=O)N1Cc1cnc(N2CCN(c3ccccc3)CC2)s1 9.58%, COCOc1cccc(CN2CCC2(C)C(=O)Nc2ccc(C)c(O)c2)c1 (stereo not drawn) 7.14%, Cc1cccc(Nc2nc(N)nc(-c3oc4ccccc4c3C)n2)c1 3.33%, COc1nc(N)nc(NC(=O)c2cccs2)c1N=O 0%, CC(=O)c1cccc(Nc2c3c(nc4ccccc24)CCC3)c1 19.4%, COc1ccc(S(=O)(=O)Nc2ccc3c(c2)C(=O)N([C@H](C)CO)C[C@@H](C)[C@@H](CN(C)Cc2ccc(Cl)c(Cl)c2)O3)cc1 3.12%, O=C(CSc1nc2ccccc2n1-c1ccccc1)Nc1ncc(Cl)cc1Cl -10%, O=C(C[C@@H]1CC[C@H]2[C@@H](COC[C@H](O)CN2Cc2ccc3c(c2)OCO3)O1)Nc1ccc(-c2ccccc2)cc1 21.4% [at 2.85 µM], O=C(c1[nH]ncc1-c1cccc(Br)c1)C1CO1 (stereo not drawn) 3.33%, COc1cc(OC)c2c(-c3cccc(-c4cccc(N)c4)c3)cc(=O)oc2c1 -3.33%, CCN(C(=O)COC(=O)c1cc2c(s1)CCCC2)c1c(N)n(Cc2ccccc2)c(=O)[nH]c1=O 16.7%, N#CC1c2ccccc2-c2ccccc2N1C(=O)c1ccccc1 (stereo not drawn) 3.33%, CC(=O)c1cc(NC(=O)c2cccc(C(F)(F)F)c2)c(=O)oc1C 20%, CC(=O)NC(c1ccc(C(C)C)cc1)c1ccc2cccnc2c1O (stereo not drawn) 13.9%, COCCNC(=O)C1CCCN(C(=O)c2cc(-c3cccs3)oc2C)CC1 (stereo not drawn) 13.3%, Cc1ccc(-c2ccc3c(c2)O[C@H](CN(C)C(=O)Nc2ccc(C(F)(F)F)cc2)[C@H](C)CN([C@@H](C)CO)S3(=O)=O)cc1 0%, CC(C)C[C@H]1CN([C@@H](CC(C)C)CN2CCC[C@@H]2CN2C(=S)NC[C@@H]2Cc2ccc(O)cc2)C(=S)N1CCc1ccccc1 15.6%, O=C1c2cccc3c(O)ccc(c23)C(=O)N1c1ccc(Cl)cc1 -29%, N#CCC(=O)N/N=C/c1cn(Cc2cccc3ccccc23)c2ccccc12 9.79%, COc1ccc(C(C#N)CC(=O)c2ccc3c(c2)OCO3)cc1OC (stereo not drawn) 16.7%, O=C(Nc1ccccc1)N1C[C@H]2[C@@H](c3ccccc31)[C@H](CO)N2C(=O)c1ccccn1 21.4%
